For this assay, the target named is synthetic SPP (without chloroplast transit peptide and human codon optimized) fused to green fluorescent protein (GFP) in the N terminus (A. thaliana) (UniProt Q9FIH8). Nature of the assay: affinity purification with mass spectrometry; anti-GFP antibody with lysate of HEK293 cells expressing GFP-SPP compared with cells expressing control GFP (modified RIPA buffer: 50 mM Tris-HCl pH 7.4, 150 mM NaCl, 0.25% DOC, 1% IgPal), µMACS Micro Beads, label-free quantification, FDR < 0.05, n = 3.

Chains of the proteins cited; added tags and fusions are not shown. Residues count along the entry.
UniProt Q9FIH8, residues 144-1265: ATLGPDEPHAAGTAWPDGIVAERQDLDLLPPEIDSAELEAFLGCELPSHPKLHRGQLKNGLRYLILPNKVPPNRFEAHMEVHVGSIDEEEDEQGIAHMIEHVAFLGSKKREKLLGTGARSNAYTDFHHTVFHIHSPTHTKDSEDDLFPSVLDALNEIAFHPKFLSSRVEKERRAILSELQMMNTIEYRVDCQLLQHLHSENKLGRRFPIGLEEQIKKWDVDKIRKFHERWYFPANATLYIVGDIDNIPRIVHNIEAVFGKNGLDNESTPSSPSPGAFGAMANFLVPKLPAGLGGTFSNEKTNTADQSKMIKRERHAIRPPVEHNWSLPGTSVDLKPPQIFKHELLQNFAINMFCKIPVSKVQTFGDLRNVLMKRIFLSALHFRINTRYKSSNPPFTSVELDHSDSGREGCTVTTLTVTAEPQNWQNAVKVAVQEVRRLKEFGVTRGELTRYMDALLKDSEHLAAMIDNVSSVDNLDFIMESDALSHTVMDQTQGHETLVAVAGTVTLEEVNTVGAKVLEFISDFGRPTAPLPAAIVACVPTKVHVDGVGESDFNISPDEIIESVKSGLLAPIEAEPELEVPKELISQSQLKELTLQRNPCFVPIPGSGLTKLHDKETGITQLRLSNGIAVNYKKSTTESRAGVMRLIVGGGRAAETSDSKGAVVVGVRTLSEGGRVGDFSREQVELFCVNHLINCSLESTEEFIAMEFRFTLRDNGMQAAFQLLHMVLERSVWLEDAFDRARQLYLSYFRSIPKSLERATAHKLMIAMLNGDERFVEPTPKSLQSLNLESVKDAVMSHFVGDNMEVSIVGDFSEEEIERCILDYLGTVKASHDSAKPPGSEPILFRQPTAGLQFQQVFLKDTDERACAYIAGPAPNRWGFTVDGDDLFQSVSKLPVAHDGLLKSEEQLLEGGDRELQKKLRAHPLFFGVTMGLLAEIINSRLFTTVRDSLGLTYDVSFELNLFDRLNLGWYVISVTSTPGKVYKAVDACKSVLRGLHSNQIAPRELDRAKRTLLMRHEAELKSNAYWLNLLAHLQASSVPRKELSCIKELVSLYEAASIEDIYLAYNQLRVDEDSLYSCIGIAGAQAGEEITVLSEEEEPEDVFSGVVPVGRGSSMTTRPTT
UniProt Q15365: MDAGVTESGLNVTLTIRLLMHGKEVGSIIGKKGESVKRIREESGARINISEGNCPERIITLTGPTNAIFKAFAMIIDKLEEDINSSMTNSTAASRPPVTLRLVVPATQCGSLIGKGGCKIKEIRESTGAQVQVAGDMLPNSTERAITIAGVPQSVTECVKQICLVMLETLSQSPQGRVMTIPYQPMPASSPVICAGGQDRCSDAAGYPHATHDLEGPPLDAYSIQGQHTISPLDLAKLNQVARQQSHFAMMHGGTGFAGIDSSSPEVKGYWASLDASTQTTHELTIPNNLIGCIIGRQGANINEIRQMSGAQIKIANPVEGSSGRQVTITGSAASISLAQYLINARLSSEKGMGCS
UniProt Q13200: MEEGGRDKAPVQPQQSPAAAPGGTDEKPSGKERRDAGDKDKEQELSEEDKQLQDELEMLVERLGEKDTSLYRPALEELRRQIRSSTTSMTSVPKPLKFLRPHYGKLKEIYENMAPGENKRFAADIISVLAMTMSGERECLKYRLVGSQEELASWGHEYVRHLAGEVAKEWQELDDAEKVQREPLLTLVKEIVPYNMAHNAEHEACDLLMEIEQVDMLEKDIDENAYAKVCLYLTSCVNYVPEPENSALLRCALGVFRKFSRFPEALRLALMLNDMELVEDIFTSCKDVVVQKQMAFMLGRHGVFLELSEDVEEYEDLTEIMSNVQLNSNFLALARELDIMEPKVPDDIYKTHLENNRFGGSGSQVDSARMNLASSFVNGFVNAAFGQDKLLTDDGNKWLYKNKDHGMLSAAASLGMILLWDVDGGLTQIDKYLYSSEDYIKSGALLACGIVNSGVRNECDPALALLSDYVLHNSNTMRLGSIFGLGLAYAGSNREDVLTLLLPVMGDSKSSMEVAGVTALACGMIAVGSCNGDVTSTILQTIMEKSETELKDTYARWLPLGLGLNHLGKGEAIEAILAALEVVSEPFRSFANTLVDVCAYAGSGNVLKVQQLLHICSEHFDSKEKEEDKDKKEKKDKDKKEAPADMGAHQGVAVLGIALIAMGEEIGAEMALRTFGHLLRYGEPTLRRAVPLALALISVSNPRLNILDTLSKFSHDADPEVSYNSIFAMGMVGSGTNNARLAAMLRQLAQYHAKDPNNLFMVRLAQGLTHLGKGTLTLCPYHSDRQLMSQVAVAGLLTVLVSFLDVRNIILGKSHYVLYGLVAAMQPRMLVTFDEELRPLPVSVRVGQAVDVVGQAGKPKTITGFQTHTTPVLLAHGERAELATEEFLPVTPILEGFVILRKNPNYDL

No constants are given. Whether binding was seen depends on the method and setting. Binding seen in cells or lysates may run through a third protein. A yes stands for co-enrichment or nearness to the bait. Other partners may have been found.

Here are results for nine molecules from publication PMC10645592.

Regarding MRPL28 (from UniProt Q13084 56-256), the binding result is “binds”.

Take PCBP1 (from UniProt Q15365 1-356): the binding entry is listed as “binds”.

“proteasome subunit PSMC4 (from UniProt P43686 1-418)”: the binding result is listed as “binds”.

For SLBP (from UniProt Q14493 1-270), the binding entry is reported as “binds”.

Take “proteasome subunit PSMD2 (from UniProt Q13200 1-908)”: the binding entry is reported as “binds”.

B1: SMC1A (protein, UniProt Q14683 1-1233)
chain: MGFLKLIEIENFKSYKGRQIIGPFQRFTAIIGPNGSGKSNLMDAISFVLGEKTSNLRVKTLRDLIHGAPVGKPAANRAFVSMVYSEEGAEDRTFARVIVGGSSEYKINNKVVQLHEYSEELEKLGILIKARNFLVFQGAVESIAMKNPKERTALFEEISRSGELAQEYDKRKKEMVKAEEDTQFNYHRKKNIAAERKEAKQEKEEADRYQRLKDEVVRAQVQLQLFKLYHNEVEIEKLNKELASKNKEIEKDKKRMDKVEDELKEKKKELGKMMREQQQIEKEIKEKDSELNQKRPQYIKAKENTSHKIKKLEAAKKSLQNAQKHYKKRKGDMDELEKEMLSVEKARQEFEERMEEESQSQGRDLTLEENQVKKYHRLKEEASKRAATLAQELEKFNRDQKADQDRLDLEERKKVETEAKIKQKLREIEENQKRIEKLEEYITTSKQSLEEQKKLEGELTEEVEMAKRRIDEINKELNQVMEQLGDARIDRQESSRQQRKAEIMESIKRLYPGSVYGRLIDLCQPTQKKYQIAVTKVLGKNMDAIIVDSEKTGRDCIQYIKEQRGEPETFLPLDYLEVKPTDEKLRELKGAKLVIDVIRYEPPHIKKALQYACGNALVCDNVEDARRIAFGGHQRHKTVALDGTLFQKSGVISGGASDLKAKARRWDEKAVDKLKEKKERLTEELKEQMKAKRKEAELRQVQSQAHGLQMRLKYSQSDLEQTKTRHLALNLQEKSKLESELANFGPRINDIKRIIQSREREMKDLKEKMNQVEDEVFEEFCREIGVRNIREFEEEKVKRQNEIAKKRLEFENQKTRLGIQLDFEKNQLKEDQDKVHMWEQTVKKDENEIEKLKKEEQRHMKIIDETMAQLQDLKNQHLAKKSEVNDKNHEMEEIRKKLGGANKEMTHLQKEVTAIETKLEQKRSDRHNLLQACKMQDIKLPLSKGTMDDISQEEGSSQGEDSVSGSQRISSIYAREALIEIDYGDLCEDLKDAQAEEEIKQEMNTLQQKLNEQQSVLQRIAAPNMKAMEKLESVRDKFQETSDEFEAARKRAKKAKQAFEQIKKERFDRFNACFESVATNIDEIYKALSRNSSAQAFLGPENPEEPYLDGINYNCVAPGKRFRPMDNLSGGEKTVAALALLFAIHSYKPAPFFVLDEIDAALDNTNIGKVANYIKEQSTCNFQAIVISLKEEFYTKAESLIGVYPEQGDCVISKVLTFDLTKYPDANPNPNEQ
As for B1, the binding result is given as “binds”.

B2: SNRNP27 (protein, UniProt Q8WVK2 1-155)
chain: MGRSRSRSPRRERRRSRSTSRERERRRRERSRSRERDRRRSRSRSPHRRRSRSPRRHRSTSPSPSRLKERRDEEKKETKETKSKERQITEEDLEGKTEEEIEMMKLMGFASFDSTKGKKVDGSVNAYAINVSQKRKYRQYMNRKGGFNRPLDFIA
In the case of B2, the binding entry is recorded as “binds”.

B3: DDX24 (protein, UniProt Q9GZR7 1-859)
chain: MKLKDTKSRPKQSSCGKFQTKGIKVVGKWKEVKIDPNMFADGQMDDLVCFEELTDYQLVSPAKNPSSLFSKEAPKRKAQAVSEEEEEEEGKSSSPKKKIKLKKSKNVATEGTSTQKEFEVKDPELEAQGDDMVCDDPEAGEMTSENLVQTAPKKKKNKGKKGLEPSQSTAAKVPKKAKTWIPEVHDQKADVSAWKDLFVPRPVLRALSFLGFSAPTPIQALTLAPAIRDKLDILGAAETGSGKTLAFAIPMIHAVLQWQKRNAAPPPSNTEAPPGETRTEAGAETRSPGKAEAESDALPDDTVIESEALPSDIAAEARAKTGGTVSDQALLFGDDDAGEGPSSLIREKPVPKQNENEEENLDKEQTGNLKQELDDKSATCKAYPKRPLLGLVLTPTRELAVQVKQHIDAVARFTGIKTAILVGGMSTQKQQRMLNRRPEIVVATPGRLWELIKEKHYHLRNLRQLRCLVVDEADRMVEKGHFAELSQLLEMLNDSQYNPKRQTLVFSATLTLVHQAPARILHKKHTKKMDKTAKLDLLMQKIGMRGKPKVIDLTRNEATVETLTETKIHCETDEKDFYLYYFLMQYPGRSLVFANSISCIKRLSGLLKVLDIMPLTLHACMHQKQRLRNLEQFARLEDCVLLATDVAARGLDIPKVQHVIHYQVPRTSEIYVHRSGRTARATNEGLSLMLIGPEDVINFKKIYKTLKKDEDIPLFPVQTKYMDVVKERIRLARQIEKSEYRNFQACLHNSWIEQAAAALEIELEEDMYKGGKADQQEERRRQKQMKVLKKELRHLLSQPLFTESQKTKYPTQSGKPPLLVSAPSKSESALSCLSKQKKKKTKKPKEPQPEQPQPSTSAN
As to B3, the binding entry is reported as “binds”.

B4: C7orf50 (protein, UniProt Q9BRJ6 1-194)
chain: MAKQKRKVPEVTEKKNKKLKKASAEGPLLGPEAAPSGEGAGSKGEAVLRPGLDAEPELSPEEQRVLERKLKKERKKEERQRLREAGLVAQHPPARRSGAELALDYLCRWAQKHKNWRFQKTRQTWLLLHMYDSDKVPDEHFSTLLAYLEGLQGRARELTVQKAEALMRELDEEGSDPPLPGRAQRIRQVLQLLS
As to B4, the binding entry is listed as “binds”.
